From article PMC7782793, “Hydroxamic acid-modified peptide microarrays for profiling isozyme-selective interactions and inhibition of histone deacetylases” (Nature Communications, 2021)

By UniProt entry, the sequences of proteins in these tests, tags left out.
UniProt Q92769, whole entry: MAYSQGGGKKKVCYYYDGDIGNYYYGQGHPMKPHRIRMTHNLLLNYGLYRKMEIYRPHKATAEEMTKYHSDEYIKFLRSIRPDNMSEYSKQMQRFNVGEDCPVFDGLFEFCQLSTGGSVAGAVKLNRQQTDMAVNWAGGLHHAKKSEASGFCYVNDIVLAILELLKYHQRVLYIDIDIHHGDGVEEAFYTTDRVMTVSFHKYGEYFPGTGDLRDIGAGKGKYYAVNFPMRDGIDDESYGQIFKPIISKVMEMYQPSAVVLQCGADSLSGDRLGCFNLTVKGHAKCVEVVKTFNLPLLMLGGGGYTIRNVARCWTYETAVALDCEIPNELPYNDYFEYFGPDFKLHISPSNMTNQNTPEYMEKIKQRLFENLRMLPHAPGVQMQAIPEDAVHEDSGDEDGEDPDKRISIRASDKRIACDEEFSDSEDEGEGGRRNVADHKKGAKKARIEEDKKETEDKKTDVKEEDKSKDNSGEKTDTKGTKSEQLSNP
UniProt Q9BY41, whole entry: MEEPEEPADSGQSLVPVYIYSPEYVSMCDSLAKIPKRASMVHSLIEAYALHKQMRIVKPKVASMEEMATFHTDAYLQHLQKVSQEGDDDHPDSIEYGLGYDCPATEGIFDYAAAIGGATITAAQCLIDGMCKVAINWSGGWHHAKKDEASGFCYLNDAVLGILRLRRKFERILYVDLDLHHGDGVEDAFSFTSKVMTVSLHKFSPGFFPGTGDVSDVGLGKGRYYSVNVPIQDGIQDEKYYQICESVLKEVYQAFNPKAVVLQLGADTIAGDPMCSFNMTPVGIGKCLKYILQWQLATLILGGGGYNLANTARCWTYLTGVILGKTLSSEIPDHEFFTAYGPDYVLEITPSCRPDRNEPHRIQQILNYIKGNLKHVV

Assays:
HDAC2 = HDAC2 (Homo sapiens, UniProt Q92769); test: Recombinant HDAC µSPOT microarray binding assay; conditions: HDAC2 microarray dose-response curve fit, X = Asuha; for Bottom Value: bottom plateau; for Top Value: top plateau;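 as to all read-outs here: Cellulose-bound peptide spots on slides incubated with six HDAC enzyme concentrations, binding intensity read, four-parameter variable-slope fit, EC50 is enzyme concentration giving half-maximal binding, in HEPES buffer pH 7.4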
HDAC8 = HDAC8 (Homo sapiens, UniProt Q9BY41); test: Recombinant HDAC µSPOT microarray binding assay;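 as to Bottom: relative spot intensity from the six enzyme-concentration slides imaged together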;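 as to Top: relative spot intensity from the six enzyme-concentration slides imaged together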;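 as to all read-outs here: peptide µSPOT slides incubated with varying HDAC enzyme concentrations, imaged signal intensity fitted by four-parameter variable-slope regression, EC50 is enzyme concentration giving half-maximal binding, pH 7.4 HEPES buffer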; conditions: HDAC8 µSPOT microarray dose-response fit, X = Asuha, sheet Fig. 3 HDAC8; for Bottom: Bottom Value; for HillSlope: HillSlope Value; for Top: Top Value; for LogEC50 (M): logarithm of EC50 in M

Bottom Value (HDAC2)	Top Value (HDAC2)	HillSlope (Value) (HDAC2)	Bottom Value (HDAC2; sheet Fig. 3 HDAC2)	Top Value (HDAC2; sheet Fig. 3 HDAC2)	Bottom (HDAC8)	HillSlope (HDAC8)	Top (HDAC8)	LogEC50 (M) (HDAC8)	HillSlope (Value) (HDAC2; sheet Fig. 3 HDAC2)	Structure (SMILES)
0.24	1	2.35	–	–	–	–	–	–	–	CC(C)C[C@H](NC(=O)[C@@H](NC(=O)[C@H](CCCCCC(=O)NO)NC(=O)[C@H](CCCNC(=N)N)NC(=O)[C@H](Cc1cnc[nH]1)NC(=O)[C@H](CCCNC(=N)N)NC(=O)[C@H](CCCCN)NC(=O)[C@H](C)NC(=O)CNC(=O)CNC(=O)[C@H](CCCCN)NC(=O)CNC(=O)[C@H](CC(C)C)NC(=O)CNC(=O)[C@H](CCCCN)NC(=O)CN)C(C)C)C(=O)O
–	–	–	0.1	1.07	0.1	1.36	0.83	-7.94 M	–	CC[C@H](C)[C@H](NC(=O)[C@H](CC(C)C)NC(=O)[C@H](CC(C)C)NC(=O)[C@H](CCC(=O)O)NC(=O)[C@@H](NC(=O)[C@H](CO)NC(=O)[C@H](CCCCCC(=O)NO)NC(=O)[C@H](CCC(N)=O)NC(=O)[C@H](Cc1ccc(O)cc1)NC(=O)[C@H](CCCNC(=N)N)NC(=O)[C@H](CCCNC(=N)N)NC(=O)[C@@H](NC(=O)[C@H](CCC(=O)O)NC(=O)[C@@H](N)CCCNC(=N)N)[C@@H](C)CC)[C@@H](C)O)C(=O)N[C@@H](CCCNC(=N)N)C(=O)N[C@@H](CCCCN)C(=O)O
–	–	–	0.25	1	0.2	2.61	0.97	-8.37 M	2.61	CC(C)[C@H](NC(=O)CNC(=O)CNC(=O)[C@@H](NC(=O)[C@H](C)NC(=O)[C@@H]1CCCN1C(=O)[C@H](C)NC(=O)[C@H](CO)NC(=O)[C@H](CCCCN)NC(=O)[C@H](CCCNC(=N)N)NC(=O)[C@H](C)NC(=O)[C@H](C)NC(=O)[C@H](CCCCCC(=O)NO)NC(=O)[C@@H](N)[C@@H](C)O)[C@@H](C)O)C(=O)N[C@@H](CCCCN)C(=O)N[C@@H](CCCCN)C(=O)O

The match of structure and compound is tentative.
